Percent effect of library compounds

By UniProt entry, the sequences of proteins in these tests, tags left out. Residues count along the entry.
UniProt Q4DA54, 1-478: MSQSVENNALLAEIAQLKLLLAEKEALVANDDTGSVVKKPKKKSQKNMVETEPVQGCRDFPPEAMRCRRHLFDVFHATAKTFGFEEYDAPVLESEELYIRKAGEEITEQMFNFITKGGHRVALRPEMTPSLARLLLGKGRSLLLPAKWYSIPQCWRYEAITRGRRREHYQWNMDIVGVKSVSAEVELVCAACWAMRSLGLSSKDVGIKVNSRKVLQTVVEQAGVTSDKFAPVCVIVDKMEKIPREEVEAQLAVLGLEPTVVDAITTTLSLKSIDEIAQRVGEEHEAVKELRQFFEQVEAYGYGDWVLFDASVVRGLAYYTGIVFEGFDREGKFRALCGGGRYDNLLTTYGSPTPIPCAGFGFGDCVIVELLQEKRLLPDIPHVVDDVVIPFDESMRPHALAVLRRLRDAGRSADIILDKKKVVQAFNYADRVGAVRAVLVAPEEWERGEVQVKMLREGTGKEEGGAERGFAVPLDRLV

The values are deposited in ChEMBL (CHEMBL3988442, “University of Dundee, Small-Polar-MMV Screening Library” (2021)).

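Enzyme assay of histidyl-tRNA synthetase; the read-out is not stated. Target: Histidine-tRNA ligase, Trypanosoma cruzi CL Brener (UniProt Q4DA54). Compounds at 30 µM. Higher reads as stronger inhibition (inferred: compounds with an IC50 in retests scored well above the rest). About 69,000 compounds were tested under these conditions; 0.045% (about 31) showed 50% or more at least once.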

Results are given as percent effect.
The record does not define 0% and 100%; most values in the screen are far below 50% and negative numbers occur (in some assays of this library far below -100).
This is an unselected part of the compounds tested.

Cc1cc2nc(C(C)C)cc(NCc3ccncc3)n2n1 read -3.636%. CNS(=O)(=O)c1ccc(CN2CCC(c3ccncc3)CC2)cc1 gave 3.448%. For COc1cccc(N2Cc3nc(=O)n(Cc4cccc(F)c4)n3C2=O)c1 the result was 1.98%. For O=C(CCc1ccccc1)C1CCCN(Cc2cncn2C2CC2)C1 (stereo not shown) the result was 4.04%.

For Cc1ccc(C2CCCCCN2C(=O)Nc2cn[nH]c2)o1 (stereo not shown) the result was 13.4%. Result for COC1CN(C(=O)OCC(C)C)CCC(=O)N(C)c2ccccc21 (stereo not shown) was 6.742%. Cc1ccc(S(=O)(=O)N(CC2CCOC2)C2CC2)cc1N(C)C (stereo not shown) read -4.972%. Result for O=S(=O)(c1ccccc1)N1CC[C@]2(C[C@@H](OCC3CC3)CO2)C1 was 7.563%.

Result for Cc1nn(C)c(N(C)C)c1CNCc1cccnc1N(C)C was 3.152%. NC[C@H]1CC[C@H](C(NC(=O)c2ccccc2)c2ccccn2)CC1 (stereo partly shown) read 4.301%. CCOc1ncccc1C(=O)N(C)Cc1ncc(C)c(OC)c1C read 1.132%. For CC(c1nc(C(C)(C)C)no1)N1CCN(Cc2ccco2)CC1 (stereo not shown) the result was 0%.

Cc1ccc(C)c(S(=O)(=O)NCCOc2ccc3nnc(C)n3n2)c1 gave 10.1%. COc1ccccc1Oc1cncc(C2CCCN(C)C2)n1 (stereo not shown) gave 6.084%. For COc1cc(OC)cc(N2CCC(NCc3ccsc3)C2=O)c1 (stereo not shown) the result was -14.43%. O=C(N[C@@H]1CN(Cc2ccc3c(c2)OCO3)[C@@H]2CCCO[C@@H]21)C1CC1 read 2.703%.

Nc1cc(-c2cccc3c2CCNC3)ncn1 gave -0.5587%. COc1ccc(NC(=O)CSc2nncn2-n2cccc2)c(OC)c1 gave 0.9901%. Cc1cnc(N2CCc3cc(C(=O)O)c(N(C)C)nc3CC2)nc1 read 4.523%. With Cc1cc(CN(C)c2nc(-c3ccco3)nc3c2CCN(C)CC3)on1 the screen gave 13.43%.

O=C1CCCN1CC1CN(CC2CCOCC2)Cc2nccn2C1 (stereo not shown) gave 0%. CCc1noc(CN2CCN(c3nccs3)CC2)n1 read 2.286%. COc1ccc(C2SC(C)=Nc3c2c(=O)[nH]n3C2CCCC2)cc1O (stereo not shown) read 25.74%. For Cc1csc(CCCNC(=O)[C@H]2CNC[C@@H](C(=O)N3CCCC3)C2)n1 the result was 0.8264%.

Result for CC(C)C1=NOC2(CCN(S(C)(=O)=O)CC2)C1 was 4.142%. Result for Cc1ncc(-c2ccnc(N3CCC[C@@H]3CO)n2)c(-c2cccnc2)n1 was 9.04%. For CN(C)CCO[C@@H]1CC[C@H]2[C@H]1OCCN2C(=O)c1ccccc1F the result was 7.477%. Result for c1ccc2c(c1)CC(Cc1cc(N3CCCC3)cnn1)CO2 (stereo not shown) was 17.28%.

CC(=O)NCc1ccc(C(=O)N2CCCC2c2cnn(C)c2)o1 (stereo not shown) gave -0.7576%. Result for CC1COc2ccccc2N1C(=O)c1cscn1 (stereo not shown) was 10.12%. For Cc1cc(N2CCC(N(C)C(=O)c3cccs3)CC2)nc(C)n1 the result was 6.098%. With O=C(Nc1cc(CSCCO)ccn1)c1ccc(Cl)o1 the screen gave 4.902%.

Result for CC(C)[C@@H]1CN(c2ccc(C(F)(F)F)cn2)C[C@H]1NS(C)(=O)=O was -3.704%. CN(Cc1ccccc1)CC(O)Cn1cnc2cc(F)ccc2c1=O (stereo not shown) gave 8.504%. With CCN(Cc1cn(C)nc1-c1ccc2c(c1)OCCO2)CC1CCCO1 (stereo not shown) the screen gave 0%.

Repeated from the top, 2 entries:

Compound	effect
Cc1cc2nc(C(C)C)cc(NCc3ccncc3)n2n1	-3.636%
CNS(=O)(=O)c1ccc(CN2CCC(c3ccncc3)CC2)cc1	3.448%